Assay [1] addresses XPO1 (intron 15 mScarlet tag, HAP1) (UniProt O14980). The assay is described as follows: XPO1 fluorescence intensity change vs DMSO (log2 fold change); higher = more XPO1 protein. To be noted: 6 h.
The target in assay [2] is BRD4 (intron 10 mScarlet tag, HAP1) (UniProt O60885). The assay is described as follows: BRD4 median nuclear fluorescence intensity change vs DMSO (log2 fold change); higher = more BRD4 protein. The settings on record: 6 h.

Chains of the proteins cited; added tags and fusions are not shown.
UniProt O14980, whole entry: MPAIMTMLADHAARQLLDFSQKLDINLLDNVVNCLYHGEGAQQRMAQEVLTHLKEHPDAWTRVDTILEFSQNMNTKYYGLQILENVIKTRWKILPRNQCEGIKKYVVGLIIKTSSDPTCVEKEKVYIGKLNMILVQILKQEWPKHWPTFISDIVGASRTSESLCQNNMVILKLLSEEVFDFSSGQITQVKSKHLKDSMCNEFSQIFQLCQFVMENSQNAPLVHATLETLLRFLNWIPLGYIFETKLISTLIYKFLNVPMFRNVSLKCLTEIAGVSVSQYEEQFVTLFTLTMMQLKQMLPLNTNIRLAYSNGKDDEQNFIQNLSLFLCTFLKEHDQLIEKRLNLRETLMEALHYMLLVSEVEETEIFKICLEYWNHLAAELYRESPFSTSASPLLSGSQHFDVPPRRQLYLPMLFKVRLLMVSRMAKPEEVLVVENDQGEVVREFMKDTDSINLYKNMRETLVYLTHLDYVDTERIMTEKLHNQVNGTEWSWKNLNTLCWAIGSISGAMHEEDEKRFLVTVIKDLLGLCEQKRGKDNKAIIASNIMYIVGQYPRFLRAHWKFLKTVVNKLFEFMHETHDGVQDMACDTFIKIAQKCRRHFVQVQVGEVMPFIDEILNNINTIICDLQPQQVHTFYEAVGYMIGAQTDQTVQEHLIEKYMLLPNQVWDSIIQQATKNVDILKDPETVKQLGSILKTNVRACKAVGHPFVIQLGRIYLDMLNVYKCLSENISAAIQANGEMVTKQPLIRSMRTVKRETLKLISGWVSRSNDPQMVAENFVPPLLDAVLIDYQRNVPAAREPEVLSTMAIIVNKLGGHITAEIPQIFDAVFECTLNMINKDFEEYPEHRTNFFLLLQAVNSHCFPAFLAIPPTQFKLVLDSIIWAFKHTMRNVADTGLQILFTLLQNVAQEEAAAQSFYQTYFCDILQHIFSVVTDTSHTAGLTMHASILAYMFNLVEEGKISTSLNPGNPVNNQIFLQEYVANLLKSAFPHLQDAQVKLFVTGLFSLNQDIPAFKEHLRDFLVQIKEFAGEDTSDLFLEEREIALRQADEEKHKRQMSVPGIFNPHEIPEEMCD

Each structure is given as a SMILES string. This is one part of the list. Many values rest on one well or one pass, so single values are uncertain.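 Pooled together, 41 HAP1 clones carry intronic fluorescent tags on 61 cancer-associated proteins, and each clone is recognized by its imaging pattern. Measurements are benchmarked against DMSO-treated control wells. dBET6, a BRD4 degrader, served as the positive control.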

The results in this text go back to the supplement of paper PMC11098740.

Take `O=C1NC(c2cc(Cl)c3c(c2)OCO3)Nc2ccccc21` (stereo not given) (10 µM): the “XPO1 fluorescence intensity change (log2)” value in assay [1] was -0.0691. Also, the “BRD4 median nuclear fluorescence intensity change (log2)” value in assay [2] is -0.107.

Regarding `CN(C)CCCNCCCc1ccc(C(C)(C)C)cc1` (10 µM), the “XPO1 fluorescence intensity change (log2)” value in assay [1] stood at 0.091. Also, the “BRD4 median nuclear fluorescence intensity change (log2)” value in assay [2] turned out to be 0.112.

With `Cc1cc(C(C)Nc2ncccc2C#N)c(C)o1` (stereo not given) (10 µM), the “XPO1 fluorescence intensity change (log2)” value in assay [1] came out at 0.21. The “BRD4 median nuclear fluorescence intensity change (log2)” value in assay [2] was 0.11.

For `O=C(NCC1CN(Cc2ccccc2)CCO1)Nc1ccc(F)cc1` (stereo not given) (10 µM), the “XPO1 fluorescence intensity change (log2)” value in assay [1] is -0.0924. For the same molecule, in assay [2], the “BRD4 median nuclear fluorescence intensity change (log2)” value came to 0.0734.

With `N#CC(C#N)=C1C=CC=CN1/C(=C/c1ccc(Cl)cc1)C(=O)c1ccc(Cl)cc1` (0.1 µM), the “XPO1 fluorescence intensity change (log2)” value in assay [1] is -0.187. The “BRD4 median nuclear fluorescence intensity change (log2)” value in assay [2] came to 0.136.

As for `O=C(Cc1c(F)cccc1Cl)Nc1nc(-c2ccccn2)cs1` (10 µM), the “XPO1 fluorescence intensity change (log2)” value in assay [1] stood at 0.104. Besides, in assay [2], the “BRD4 median nuclear fluorescence intensity change (log2)” value was 0.0531.

On to `Cc1ccccc1CN1C(=O)C(O)(CC(=O)c2ccccc2O)c2ccccc21` (stereo not given) (10 µM), for which the “XPO1 fluorescence intensity change (log2)” value in assay [1] was -0.232. Also, in assay [2], the “BRD4 median nuclear fluorescence intensity change (log2)” value is 0.0661.

For `CC(C)(C)c1cc(Nc2ccncc2)n2ncc(-c3ccccc3)c2n1` (10 µM), the “XPO1 fluorescence intensity change (log2)” value in assay [1] was -0.152. Also, the “BRD4 median nuclear fluorescence intensity change (log2)” value in assay [2] came to 0.0937.

For the molecule `CCOC(=O)c1c(-c2ccccc2)oc2ccc(NS(=O)(=O)c3ccc(C)cc3)cc12` (10 µM), the “XPO1 fluorescence intensity change (log2)” value in assay [1] came out at 0.0513. Moreover, the “BRD4 median nuclear fluorescence intensity change (log2)” value in assay [2] is 0.0592.

For the molecule `Cc1cc(Nc2ccc3[nH]c(C)cc3c2)nc(C)n1` (10 µM), in assay [1], the “XPO1 fluorescence intensity change (log2)” value is -0.063. Moreover, the “BRD4 median nuclear fluorescence intensity change (log2)” value in assay [2] was 0.0425.

`COc1ccsc1C(=O)Nc1nc(-c2ccccc2)c(-c2nccn2C)s1` (10 µM): in assay [1], the “XPO1 fluorescence intensity change (log2)” value is -0.103. Also, the “BRD4 median nuclear fluorescence intensity change (log2)” value in assay [2] is 0.145.

For `COc1ccc(C(CC(=O)c2ccco2)Sc2cccc3cccnc23)cc1OC` (stereo not given) (1 µM), in assay [1], the “XPO1 fluorescence intensity change (log2)” value turned out to be 0.104. Moreover, the “BRD4 median nuclear fluorescence intensity change (log2)” value in assay [2] was -0.0365.

For the molecule `O=c1c(Cl)c(Cl)cnn1Cc1ccccc1Cl` (1 µM), the “XPO1 fluorescence intensity change (log2)” value in assay [1] is -0.00214. Besides, the “BRD4 median nuclear fluorescence intensity change (log2)” value in assay [2] worked out at 0.216.

`CCCCOc1ccc(-c2nnc(CCl)o2)cc1` (10 µM): the “XPO1 fluorescence intensity change (log2)” value in assay [1] amounted to 0.0889. In addition, in assay [2], the “BRD4 median nuclear fluorescence intensity change (log2)” value stood at 0.0432.

As to `COc1ccc(-c2csc(NC(=O)c3cc(C)nn3C)n2)cc1` (0.1 µM), the “XPO1 fluorescence intensity change (log2)” value in assay [1] was -0.00497. In assay [2], the “BRD4 median nuclear fluorescence intensity change (log2)” value was found to be 0.0901.

As for `Cc1nn(-c2ccccc2)c2c1CC(C#N)(c1ccccn1)C1CCCCN21` (stereo not given) (10 µM), the “XPO1 fluorescence intensity change (log2)” value in assay [1] was -0.204. Besides, the “BRD4 median nuclear fluorescence intensity change (log2)” value in assay [2] amounted to 0.0209.

As for `Cc1ccccc1OCCN(C)C(=O)Nc1ccc2c(c1)OCO2` (10 µM), the “XPO1 fluorescence intensity change (log2)” value in assay [1] was -0.0227. For the same molecule, the “BRD4 median nuclear fluorescence intensity change (log2)” value in assay [2] was 0.093.

Turning to `COc1cccc2c1N(CC(=O)Nc1ccc3c(c1)CCN3C(C)=O)CCC2` (10 µM), the “XPO1 fluorescence intensity change (log2)” value in assay [1] is -0.0626. The “BRD4 median nuclear fluorescence intensity change (log2)” value in assay [2] was -0.0612.

As for `CN(CCO)CC(O)Cn1c2ccc(Br)cc2c2cc(Br)ccc21` (stereo not given) (10 µM), the “XPO1 fluorescence intensity change (log2)” value in assay [1] was -0.00186. Besides, the “BRD4 median nuclear fluorescence intensity change (log2)” value in assay [2] stood at 0.0378.

As for `Cc1nn(C)c2ncc(C(=O)Nc3cccc(NC(=O)c4cccs4)c3)cc12` (10 µM), the “XPO1 fluorescence intensity change (log2)” value in assay [1] was determined as 0.00876. Further, the “BRD4 median nuclear fluorescence intensity change (log2)” value in assay [2] was -0.0207.

For `CCOc1ccccc1NS(=O)(=O)c1ccc(OC)cc1` (10 µM), in assay [1], the “XPO1 fluorescence intensity change (log2)” value is -0.181. In assay [2], the “BRD4 median nuclear fluorescence intensity change (log2)” value is -0.0239.

For the molecule `O=c1[nH]c2c(c3ccccc13)C(c1ccccc1)N1C=CN=CC1=N2` (stereo not given) (10 µM), the “XPO1 fluorescence intensity change (log2)” value in assay [1] was -0.0274. For the same molecule, the “BRD4 median nuclear fluorescence intensity change (log2)” value in assay [2] was -0.0284.

With `COc1ccc(OCc2noc(CCl)n2)cc1` (10 µM), the “XPO1 fluorescence intensity change (log2)” value in assay [1] was -0.131. Besides, in assay [2], the “BRD4 median nuclear fluorescence intensity change (log2)” value stood at 0.0383.

For `Cc1ccc(C(Nc2ncnc3sccc23)c2cccs2)cc1` (stereo not given) (10 µM), the “XPO1 fluorescence intensity change (log2)” value in assay [1] is -0.116. Besides, the “BRD4 median nuclear fluorescence intensity change (log2)” value in assay [2] worked out at 0.00744.

`COc1ccc(-c2nc(-c3ccc(O)c(O)c3)cs2)cc1` (10 µM): the “XPO1 fluorescence intensity change (log2)” value in assay [1] was 0.0283. In addition, the “BRD4 median nuclear fluorescence intensity change (log2)” value in assay [2] came to 0.0966.

With `COC(=O)c1cccc(C#Cc2cccc(NC(=O)c3ccc(C)nc3)c2)c1` (10 µM), the “XPO1 fluorescence intensity change (log2)” value in assay [1] was -0.106. Moreover, the “BRD4 median nuclear fluorescence intensity change (log2)” value in assay [2] was -0.118.

As to `Cc1cccc(N2CCN(C(=O)c3cccc(C#N)c3)CC2)c1` (10 µM), the “XPO1 fluorescence intensity change (log2)” value in assay [1] is -0.00731. For the same molecule, in assay [2], the “BRD4 median nuclear fluorescence intensity change (log2)” value turned out to be 0.0963.

For the molecule `CC(C)CC(=O)Nc1ccc(-c2cn3ccccc3n2)cc1` (10 µM), the “XPO1 fluorescence intensity change (log2)” value in assay [1] is 0.134. In addition, the “BRD4 median nuclear fluorescence intensity change (log2)” value in assay [2] was 0.000298.

On to `CCOC(=O)C1=C(CCl)NC(=O)NC1c1ccc(Cl)cc1` (stereo not given) (10 µM), for which the “XPO1 fluorescence intensity change (log2)” value in assay [1] was -0.0545. Moreover, in assay [2], the “BRD4 median nuclear fluorescence intensity change (log2)” value amounted to 0.0963.

In the case of `Cc1cc(NCCOc2ccc3c(c2)CCC3)n2ncnc2n1` (10 µM), in assay [1], the “XPO1 fluorescence intensity change (log2)” value turned out to be 0.166. For the same molecule, the “BRD4 median nuclear fluorescence intensity change (log2)” value in assay [2] was found to be 0.197.

In the case of `Cc1cc(C(=O)N(C)Cc2cnn(C)c2)c(C)n1Cc1ccco1` (10 µM), in assay [1], the “XPO1 fluorescence intensity change (log2)” value was determined as 0.117. The “BRD4 median nuclear fluorescence intensity change (log2)” value in assay [2] worked out at 0.131.

Consider `O=C(Nc1ccncc1)c1ccc(SC(F)(F)F)cc1` (1 µM), for which, in assay [1], the “XPO1 fluorescence intensity change (log2)” value worked out at 0.0453. Further, the “BRD4 median nuclear fluorescence intensity change (log2)” value in assay [2] came to 0.00107.

Turning to `O=C(Nc1cc(C(F)F)ns1)Nc1cc(F)ncc1CO` (10 µM), the “XPO1 fluorescence intensity change (log2)” value in assay [1] amounted to 0.0754. For the same molecule, the “BRD4 median nuclear fluorescence intensity change (log2)” value in assay [2] is -0.0693.

With `Cc1cc(C(=O)N2CCN(c3cc(Cl)ccc3C)CC2)c2ccccc2n1` (1 µM), in assay [1], the “XPO1 fluorescence intensity change (log2)” value stood at 0.0412. Further, in assay [2], the “BRD4 median nuclear fluorescence intensity change (log2)” value was -0.0416.

In the case of `CCc1ncc(C(=O)Nc2nc(-c3ccccn3)cs2)s1` (10 µM), the “XPO1 fluorescence intensity change (log2)” value in assay [1] is -0.139. The “BRD4 median nuclear fluorescence intensity change (log2)” value in assay [2] was found to be 0.107.

As to `COc1ccc(CCNc2ncnc3scc(-c4cccs4)c23)cc1OC` (10 µM), in assay [1], the “XPO1 fluorescence intensity change (log2)” value is 0.0586. For the same molecule, in assay [2], the “BRD4 median nuclear fluorescence intensity change (log2)” value is -0.13.

Take `CCOC(=O)c1ccnc(CNCC(=O)N(CC)CCN(C)C)c1` (20 µM): the “XPO1 fluorescence intensity change (log2)” value in assay [1] was -0.133. In addition, the “BRD4 median nuclear fluorescence intensity change (log2)” value in assay [2] was determined as 0.0758.

In the case of `O=S(=O)(Cc1ccccc1)NCCCNc1ccc(C(F)(F)F)cn1` (1 µM), the “XPO1 fluorescence intensity change (log2)” value in assay [1] turned out to be 0.0186. Moreover, in assay [2], the “BRD4 median nuclear fluorescence intensity change (log2)” value is -0.0217.

Regarding `CCOC(=O)N1CCN(C(=O)c2cc(-c3ccncc3)nc3ccccc23)CC1` (10 µM), the “XPO1 fluorescence intensity change (log2)” value in assay [1] is 0.0765. Further, the “BRD4 median nuclear fluorescence intensity change (log2)” value in assay [2] was 0.118.

Consider `CC[C@H](C)n1cc(C)c2c(C(=O)NCc3c(C)cc(C)[nH]c3=O)cc(-c3ccc(N4CCNCC4)nc3)cc21` (10 µM), for which the “XPO1 fluorescence intensity change (log2)” value in assay [1] was determined as 0.0144. For the same molecule, the “BRD4 median nuclear fluorescence intensity change (log2)” value in assay [2] is 0.0874.
